# According to PubChem BioAssay AID330 (DTP/NCI, 2004):
# The list shows only some results of the screen, not a fair sample: it is rich in T/C values a quarter to a half above the control, in often repeated tests (any T/C) and in doses without a T/C. Further doses and runs are listed elsewhere. T/C: endpoint of the treated group in % of that of the vehicle group. Some entries give survivors of the animals treated and no T/C: the source files T/C as zero there, which appears to mark a toxic dose or a test without result, not a measured value. Survivors were counted at the toxicity check, usually on the fifth day, unless a day is given; later deaths do not show. Schedules are NCI's codes, taken here to give the interval after Q, in days (D) or hours (H), and the number of doses after X.
# Test system: P388 leukemia ip, CD2F1 mice, survival T/C
# Assay: NCI In Vivo Anticancer Drug Screen. Data for tumor model P388 Leukemia (intraperitoneal) in CD2F1 (CDF1) mice
# Conditions: T/C endpoint: median survival time; dose: 60.0 mg/kg/injection; schedule: Q01DX005 (ip); vehicle: saline with Tween-80; higher T/C = longer survival
compound,measurement,value
CCOC(CN/C(=C/c1ccc2ccccc2[n+]1C)SC)OCC,survivor count,0 of 6
